Article PMC4523816
These are yes or no findings as the source states them, for the method shown. Binding can be weak; no strength is given.

Target: BpfD (SO4323), full-length (Shewanella oneidensis MR-1) (UniProt Q8E9G0)
Assay: two-hybrid; bacterial two-hybrid (BacterioMatch II) in E. coli reporter cells; bait in pBT, target in pTRG; M9 salt agar with chloramphenicol and tetracycline, with or without 3-AT, 24 h at 37°C (then 16 h at room temperature if no colonies); positives confirmed on 3-AT and streptomycin

In the case of “BpfA_(Nterm), the N terminus (∼200 a.a.) of BpfA (from UniProt Q8E9G6) (domain or fragment)”, the binding is reported as “binds”.
